According to patent US20240307819A1, “ELECTROCHEMICAL TARGET SPECIES CAPTURE WITH A REDOX-ACTIVE AMINE” (Massachusetts Institute of Technology, priority 2021, published 2024):

Columns and labels:
[1] = benchmark MEA process; cited from earlier work
[2] = Electrochemical release of CO2 by constant-current oxidation in an H-cell (electron utilization); conditions: 0.2 M in 5 mL water, 1 M potassium nitrate, 50 mA for 62 min, full conversion
Protocol: FIGS. 5A-5F are related to electrochemical release of CO2. FIG. 5A is a schematic of the experimental setup for CO2 release. […] The amount of released CO2 (curve A) and electron utilization (curve B) are shown versus electric charge.
A bench-scale setup using an electrochemical H-cell was constructed and tested for the capture and release of CO2 (FIG. 5A). The system was equipped with an anion exchange membrane separating two 5 mL reaction chambers, carbon felt as a working electrode, and a stainless steel wire electrode for an arbitrary reaction in the counter chamber. […] Then, pure CO2 was bubbled into the solution for 10 min to complete the saturation of the electrochemically generated 1-Apyl radical dimer 3 solution. […] The electron utilization (εCO2) during CO2 release on oxidation represents the ratio between the moles of CO2 released and the moles of electrons transferred (equation 1): […]

Row | SMILES | energy required for the benchmark process [1] | Faradaic efficiency of reduction to the radical [2]
1 | NCCO [MEA, monoethanolamine] | 9.56 to 19.1 kcal/mol | –
2 | N[n+]1ccccc1 [1-AP nitrate, 1-aminopyridinium] | – | 53%
